Reference: the supplement of paper PMC7661543
± gives the standard deviation of the averaged measurements. The effect of the compound repeats well; differences between the knockouts mostly do not.

Test system: BT-20
Assay: relative cell number vs DMSO control (72 h) (% of DMSO); higher = less growth inhibition (more cells)
Method: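 QMAP-Seq: a pool of 5 breast cancer cell lines (ZR-75-1, SKBR3, HCC-38, MDA-MB-231, BT-20), each carrying 12 doxycycline-inducible Cas9 sgRNA perturbations (11 knockouts plus non-targeting sgNT), was treated with compounds for 72 h at four 10-fold doses (10 nM-10 uM or 1 nM-1 uM range). Barcodes were amplified and sequenced, and cell number was interpolated from 293T spike-in standard curves. The result is expressed as % of the median of DMSO wells. Two biological replicates.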

Fc1ccc(CNc2ncnc3ccc(F)cc23)cc1 [Spautin1]
Details	relative cell number
sgRNA knockout: sgATF3, 10 nM	98.89 ± 0.77
sgRNA knockout: sgATF3, 100 nM	90.7 ± 16
sgRNA knockout: sgATF3, 1000 nM	98.9 ± 10
sgRNA knockout: sgATF3, 10000 nM	93.7 ± 7.8
sgRNA knockout: sgATF4, 10 nM	108 ± 15
sgRNA knockout: sgATF4, 100 nM	92.5 ± 14
sgRNA knockout: sgATF4, 1000 nM	99.59 ± 0.53
sgRNA knockout: sgATF4, 10000 nM	92 ± 11
sgRNA knockout: sgATF6, 10 nM	93.6 ± 30
sgRNA knockout: sgATF6, 100 nM	94.3 ± 1.1
sgRNA knockout: sgATF6, 1000 nM	99.72 ± 0.35
sgRNA knockout: sgATF6, 10000 nM	104 ± 7.2
sgRNA knockout: sgATG7, 10 nM	90.8 ± 8.9
sgRNA knockout: sgATG7, 100 nM	92.7 ± 10
sgRNA knockout: sgATG7, 1000 nM	104 ± 8.6
sgRNA knockout: sgATG7, 10000 nM	98.3 ± 8.7
sgRNA knockout: sgERN1, 10 nM	92.9 ± 29
sgRNA knockout: sgERN1, 100 nM	100 ± 5.8
sgRNA knockout: sgERN1, 1000 nM	99.6 ± 15
sgRNA knockout: sgERN1, 10000 nM	94.8 ± 16
sgRNA knockout: sgHSF1, 10 nM	113 ± 12
sgRNA knockout: sgHSF1, 100 nM	99.5 ± 5.8
sgRNA knockout: sgHSF1, 1000 nM	101 ± 4.8
sgRNA knockout: sgHSF1, 10000 nM	95.9 ± 21
sgRNA knockout: sgHSF2, 10 nM	83.4 ± 15
sgRNA knockout: sgHSF2, 100 nM	82 ± 12
sgRNA knockout: sgHSF2, 1000 nM	90.9 ± 13
sgRNA knockout: sgHSF2, 10000 nM	111 ± 22
sgRNA knockout: sgKEAP1, 10 nM	113 ± 9.4
sgRNA knockout: sgKEAP1, 100 nM	80.7 ± 17
sgRNA knockout: sgKEAP1, 1000 nM	93.2 ± 4
sgRNA knockout: sgKEAP1, 10000 nM	91.4 ± 9.4
sgRNA knockout: sgNFE2L2, 10 nM	93.6 ± 7
sgRNA knockout: sgNFE2L2, 100 nM	95.9 ± 32
sgRNA knockout: sgNFE2L2, 1000 nM	106 ± 11
sgRNA knockout: sgNFE2L2, 10000 nM	106 ± 2.3
sgRNA knockout: sgSLC35F2, 10 nM	99.4 ± 6.7
sgRNA knockout: sgSLC35F2, 100 nM	98.7 ± 14
sgRNA knockout: sgSLC35F2, 1000 nM	95 ± 13
sgRNA knockout: sgSLC35F2, 10000 nM	95.4 ± 26
sgRNA knockout: sgXBP1, 10 nM	112 ± 11
sgRNA knockout: sgXBP1, 100 nM	94.8 ± 16
sgRNA knockout: sgXBP1, 1000 nM	105 ± 18
sgRNA knockout: sgXBP1, 10000 nM	99.6 ± 8.2

NC(=O)Nc1sc(-c2ccc(F)cc2)cc1C(N)=O [TPCA1]
Details	relative cell number
sgRNA knockout: sgATF3, 10 nM	95.97 ± 0.26
sgRNA knockout: sgATF3, 100 nM	97.3 ± 9.8
sgRNA knockout: sgATF3, 1000 nM	113 ± 16
sgRNA knockout: sgATF3, 10000 nM	74.4 ± 11
sgRNA knockout: sgATF4, 10 nM	101 ± 5
sgRNA knockout: sgATF4, 100 nM	108 ± 10
sgRNA knockout: sgATF4, 1000 nM	114 ± 18
sgRNA knockout: sgATF4, 10000 nM	72.8 ± 3.8
sgRNA knockout: sgATF6, 10 nM	103 ± 18
sgRNA knockout: sgATF6, 100 nM	91.2 ± 5.5
sgRNA knockout: sgATF6, 1000 nM	113 ± 9.7
sgRNA knockout: sgATF6, 10000 nM	68.3 ± 1.8
sgRNA knockout: sgATG7, 10 nM	109 ± 2.1
sgRNA knockout: sgATG7, 100 nM	101 ± 6.4
sgRNA knockout: sgATG7, 1000 nM	107 ± 5
sgRNA knockout: sgATG7, 10000 nM	68 ± 4.5
sgRNA knockout: sgERN1, 10 nM	106 ± 3.4
sgRNA knockout: sgERN1, 100 nM	87.9 ± 6.1
sgRNA knockout: sgERN1, 1000 nM	99.3 ± 5.9
sgRNA knockout: sgERN1, 10000 nM	68.5 ± 11
sgRNA knockout: sgHSF1, 10 nM	103 ± 4.5
sgRNA knockout: sgHSF1, 100 nM	99.6 ± 10
sgRNA knockout: sgHSF1, 1000 nM	116 ± 23
sgRNA knockout: sgHSF1, 10000 nM	66.8 ± 5.2
sgRNA knockout: sgHSF2, 10 nM	108 ± 14
sgRNA knockout: sgHSF2, 100 nM	96.4 ± 4.5
sgRNA knockout: sgHSF2, 1000 nM	105 ± 32
sgRNA knockout: sgHSF2, 10000 nM	69.41 ± 0.11
sgRNA knockout: sgKEAP1, 10 nM	108 ± 8.4
sgRNA knockout: sgKEAP1, 100 nM	98.1 ± 9.3
sgRNA knockout: sgKEAP1, 1000 nM	107 ± 16
sgRNA knockout: sgKEAP1, 10000 nM	66.4 ± 8
sgRNA knockout: sgNFE2L2, 10 nM	122 ± 12
sgRNA knockout: sgNFE2L2, 100 nM	104 ± 24
sgRNA knockout: sgNFE2L2, 1000 nM	106 ± 24
sgRNA knockout: sgNFE2L2, 10000 nM	78 ± 7.9
sgRNA knockout: sgSLC35F2, 10 nM	111 ± 4.1
sgRNA knockout: sgSLC35F2, 100 nM	105 ± 20
sgRNA knockout: sgSLC35F2, 1000 nM	93.63 ± 0.73
sgRNA knockout: sgSLC35F2, 10000 nM	79.4 ± 17
sgRNA knockout: sgXBP1, 10 nM	110 ± 7
sgRNA knockout: sgXBP1, 100 nM	105 ± 17
sgRNA knockout: sgXBP1, 1000 nM	120 ± 7.7
sgRNA knockout: sgXBP1, 10000 nM	76.7 ± 5

Cn1nnc2c(C(N)=O)ncn2c1=O [Temozolomide]
Details	relative cell number
sgRNA knockout: sgATF3, 10 nM	111 ± 11
sgRNA knockout: sgATF3, 100 nM	91.8 ± 3.4
sgRNA knockout: sgATF3, 1000 nM	113 ± 12
sgRNA knockout: sgATF3, 10000 nM	128 ± 34
sgRNA knockout: sgATF4, 10 nM	120 ± 10
sgRNA knockout: sgATF4, 100 nM	101 ± 9.2
sgRNA knockout: sgATF4, 1000 nM	115 ± 5.7
sgRNA knockout: sgATF4, 10000 nM	135 ± 27
sgRNA knockout: sgATF6, 10 nM	101 ± 12
sgRNA knockout: sgATF6, 100 nM	98.3 ± 15
sgRNA knockout: sgATF6, 1000 nM	107 ± 12
sgRNA knockout: sgATF6, 10000 nM	137 ± 40
sgRNA knockout: sgATG7, 10 nM	111 ± 16
sgRNA knockout: sgATG7, 100 nM	101 ± 2.4
sgRNA knockout: sgATG7, 1000 nM	108.6 ± 0.89
sgRNA knockout: sgATG7, 10000 nM	120 ± 27
sgRNA knockout: sgERN1, 10 nM	109.4 ± 0.66
sgRNA knockout: sgERN1, 100 nM	94.7 ± 1.3
sgRNA knockout: sgERN1, 1000 nM	106 ± 3.8
sgRNA knockout: sgERN1, 10000 nM	125 ± 22
sgRNA knockout: sgHSF1, 10 nM	103 ± 12
sgRNA knockout: sgHSF1, 100 nM	86.34 ± 0.29
sgRNA knockout: sgHSF1, 1000 nM	99.1 ± 11
sgRNA knockout: sgHSF1, 10000 nM	109 ± 31
sgRNA knockout: sgHSF2, 10 nM	103 ± 8.9
sgRNA knockout: sgHSF2, 100 nM	88.96 ± 0.34
sgRNA knockout: sgHSF2, 1000 nM	116 ± 22
sgRNA knockout: sgHSF2, 10000 nM	122 ± 24
sgRNA knockout: sgKEAP1, 10 nM	95.6 ± 6.1
sgRNA knockout: sgKEAP1, 100 nM	100 ± 12
sgRNA knockout: sgKEAP1, 1000 nM	111 ± 5.3
sgRNA knockout: sgKEAP1, 10000 nM	113 ± 4.3
sgRNA knockout: sgNFE2L2, 10 nM	125 ± 1.2
sgRNA knockout: sgNFE2L2, 100 nM	108 ± 9.3
sgRNA knockout: sgNFE2L2, 1000 nM	144 ± 19
sgRNA knockout: sgNFE2L2, 10000 nM	158 ± 48
sgRNA knockout: sgSLC35F2, 10 nM	103 ± 9.4
sgRNA knockout: sgSLC35F2, 100 nM	98.7 ± 7.7
sgRNA knockout: sgSLC35F2, 1000 nM	115 ± 22
sgRNA knockout: sgSLC35F2, 10000 nM	118 ± 55
sgRNA knockout: sgXBP1, 10 nM	103 ± 1.5
sgRNA knockout: sgXBP1, 100 nM	95.4 ± 2.2
sgRNA knockout: sgXBP1, 1000 nM	111 ± 6.2
sgRNA knockout: sgXBP1, 10000 nM	123 ± 31
